The experiment has as its system L1210 leukemia ip in BDF1 mice, survival T/C. Kind of experiment: NCI In Vivo Anticancer Drug Screen. Data for tumor model L1210 Leukemia (intraperitoneal) in B6D2F1 (BDF1) mice. The note with it: T/C endpoint: mean survival time, higher T/C = longer survival.

The list shows only some results of the screen, not a fair sample: it gathers tests that were run many times, whatever their T/C, doses with no T/C, and many T/C values between a quarter and a half above the control. Other doses and runs of a compound stand elsewhere. T/C: endpoint of the treated group in % of that of the vehicle group. Some entries give survivors of the animals treated and no T/C: the source files T/C as zero there, which appears to mark a toxic dose or a test without result, not a measured value. Survivors were counted at the toxicity check, usually on the fifth day, unless a day is given; later deaths do not show. Schedule codes are those of the source, taken here to give the interval after Q, in days (D) or hours (H), and the number of doses after X. Where survival is the endpoint, the PubChem record calls one and a half times the control and up active, and a quarter to a half above the control has no call in these data; cut-offs in other NCI protocols can differ. Some schedules carry Z or #; the key to these is not given.

As to `CN(C)N=Nc1ccc(CCCC(=O)NN)cc1`, the T/C was 127 % of control (dose: 42.0 mg/kg/injection, schedule: Q01DX009 (ip), vehicle: other); 142 % of control (dose: 45.0 mg/kg/injection, schedule: Q01DX Z (ip), vehicle: carboxymethylcellulose (CMC)); 146 % of control (dose: 63.0 mg/kg/injection, schedule: Q01DX009 (ip), vehicle: other). In addition, the survivor count (dose: 400.0 mg/kg/injection, schedule: Q01DX001 (ip), vehicle: carboxymethylcellulose (CMC)) is reported as 1 of 4.

These data come from PubChem BioAssay AID248 (DTP/NCI, 2004).
